From PMC6435041
Results are given in words; binding and its absence hold for the method and conditions named. Binding seen in cells or lysates may run through a third protein.

Sequences of proteins named here, by UniProt entry; tags and fusion partners are left off. A change or cut given only in a name is not applied to a line headed by its entry. A line that says so, or that is headed by a name, gives the form on record, which may keep a tag or linker.
UniProt Q16637: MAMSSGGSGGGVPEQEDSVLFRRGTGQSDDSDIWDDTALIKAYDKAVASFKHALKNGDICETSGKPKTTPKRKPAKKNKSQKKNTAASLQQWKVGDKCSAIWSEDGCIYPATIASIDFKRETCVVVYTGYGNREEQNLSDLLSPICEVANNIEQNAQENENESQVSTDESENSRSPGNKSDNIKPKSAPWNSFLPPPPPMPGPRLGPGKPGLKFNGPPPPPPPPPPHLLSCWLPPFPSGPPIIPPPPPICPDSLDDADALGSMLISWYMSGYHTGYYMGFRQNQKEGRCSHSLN
Myc-SMN2a (SMN-Δ7, exon 7-deleted form of survival motor neuron protein) (Q16637, form named): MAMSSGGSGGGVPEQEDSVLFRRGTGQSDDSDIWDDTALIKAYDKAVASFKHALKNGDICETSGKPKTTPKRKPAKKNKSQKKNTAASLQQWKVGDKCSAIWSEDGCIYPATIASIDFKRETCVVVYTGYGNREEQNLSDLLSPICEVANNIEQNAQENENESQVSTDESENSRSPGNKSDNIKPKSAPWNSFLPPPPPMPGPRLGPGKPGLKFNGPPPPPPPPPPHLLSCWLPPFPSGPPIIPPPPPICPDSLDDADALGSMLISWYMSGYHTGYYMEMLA
UniProt P07711: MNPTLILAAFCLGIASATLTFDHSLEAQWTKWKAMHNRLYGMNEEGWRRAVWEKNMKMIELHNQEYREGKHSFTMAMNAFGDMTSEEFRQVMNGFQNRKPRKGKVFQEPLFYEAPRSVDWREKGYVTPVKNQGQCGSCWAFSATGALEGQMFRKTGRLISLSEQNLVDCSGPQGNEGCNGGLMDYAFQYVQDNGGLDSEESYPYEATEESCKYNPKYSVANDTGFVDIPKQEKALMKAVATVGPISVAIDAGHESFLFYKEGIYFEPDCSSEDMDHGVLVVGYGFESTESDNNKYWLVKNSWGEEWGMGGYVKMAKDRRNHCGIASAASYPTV

Columns and labels:
[1] = target: Myc-SMN2a (SMN-Δ7, exon 7-deleted form of survival motor neuron protein) (human) (UniProt Q16637); assay: co-IP; HEK293 cells co-transfected with 1 μg protease plasmid, 1 μg pLVX-Tight-Myc-SMN2a/d and 1 μg EF1α-rtTA plasmid; which partner was precipitated is not told for this experiment
[2] = target: Myc-SMN2d (SMN-FL, full-length survival motor neuron protein) (human) (UniProt Q16637); assay: as above

## C9-tagged CTSL (from UniProt P07711) (enzyme)
[1]
  binding: no binding
[2]
  binding: no binding
